Among the data in paper PMC12259256 are binding values, retold here.

The chains behind the UniProt entries cited, without tags or fusion partners. Residues count along the entry.
UniProt P22607, residues 23-806: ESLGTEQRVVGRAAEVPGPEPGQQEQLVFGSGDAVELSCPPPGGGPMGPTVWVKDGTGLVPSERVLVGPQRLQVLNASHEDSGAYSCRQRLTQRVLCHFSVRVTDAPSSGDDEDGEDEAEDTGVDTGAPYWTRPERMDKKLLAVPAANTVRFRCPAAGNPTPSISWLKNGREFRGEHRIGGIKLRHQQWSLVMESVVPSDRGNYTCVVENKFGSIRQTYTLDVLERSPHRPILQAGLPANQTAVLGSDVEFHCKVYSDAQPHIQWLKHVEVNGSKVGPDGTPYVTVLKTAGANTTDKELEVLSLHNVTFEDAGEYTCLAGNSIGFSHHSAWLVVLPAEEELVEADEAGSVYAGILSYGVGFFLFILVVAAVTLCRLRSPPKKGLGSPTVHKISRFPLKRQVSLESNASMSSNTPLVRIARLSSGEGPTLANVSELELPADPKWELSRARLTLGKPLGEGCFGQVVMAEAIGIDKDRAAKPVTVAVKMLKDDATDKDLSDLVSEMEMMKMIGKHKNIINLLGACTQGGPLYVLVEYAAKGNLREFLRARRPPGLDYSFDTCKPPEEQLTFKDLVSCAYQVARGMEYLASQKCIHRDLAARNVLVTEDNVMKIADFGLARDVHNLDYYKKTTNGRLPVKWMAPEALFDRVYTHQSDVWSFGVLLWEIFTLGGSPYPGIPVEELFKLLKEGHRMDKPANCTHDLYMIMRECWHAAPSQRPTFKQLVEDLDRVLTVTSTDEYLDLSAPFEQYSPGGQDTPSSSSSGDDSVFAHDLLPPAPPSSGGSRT
UniProt P51532: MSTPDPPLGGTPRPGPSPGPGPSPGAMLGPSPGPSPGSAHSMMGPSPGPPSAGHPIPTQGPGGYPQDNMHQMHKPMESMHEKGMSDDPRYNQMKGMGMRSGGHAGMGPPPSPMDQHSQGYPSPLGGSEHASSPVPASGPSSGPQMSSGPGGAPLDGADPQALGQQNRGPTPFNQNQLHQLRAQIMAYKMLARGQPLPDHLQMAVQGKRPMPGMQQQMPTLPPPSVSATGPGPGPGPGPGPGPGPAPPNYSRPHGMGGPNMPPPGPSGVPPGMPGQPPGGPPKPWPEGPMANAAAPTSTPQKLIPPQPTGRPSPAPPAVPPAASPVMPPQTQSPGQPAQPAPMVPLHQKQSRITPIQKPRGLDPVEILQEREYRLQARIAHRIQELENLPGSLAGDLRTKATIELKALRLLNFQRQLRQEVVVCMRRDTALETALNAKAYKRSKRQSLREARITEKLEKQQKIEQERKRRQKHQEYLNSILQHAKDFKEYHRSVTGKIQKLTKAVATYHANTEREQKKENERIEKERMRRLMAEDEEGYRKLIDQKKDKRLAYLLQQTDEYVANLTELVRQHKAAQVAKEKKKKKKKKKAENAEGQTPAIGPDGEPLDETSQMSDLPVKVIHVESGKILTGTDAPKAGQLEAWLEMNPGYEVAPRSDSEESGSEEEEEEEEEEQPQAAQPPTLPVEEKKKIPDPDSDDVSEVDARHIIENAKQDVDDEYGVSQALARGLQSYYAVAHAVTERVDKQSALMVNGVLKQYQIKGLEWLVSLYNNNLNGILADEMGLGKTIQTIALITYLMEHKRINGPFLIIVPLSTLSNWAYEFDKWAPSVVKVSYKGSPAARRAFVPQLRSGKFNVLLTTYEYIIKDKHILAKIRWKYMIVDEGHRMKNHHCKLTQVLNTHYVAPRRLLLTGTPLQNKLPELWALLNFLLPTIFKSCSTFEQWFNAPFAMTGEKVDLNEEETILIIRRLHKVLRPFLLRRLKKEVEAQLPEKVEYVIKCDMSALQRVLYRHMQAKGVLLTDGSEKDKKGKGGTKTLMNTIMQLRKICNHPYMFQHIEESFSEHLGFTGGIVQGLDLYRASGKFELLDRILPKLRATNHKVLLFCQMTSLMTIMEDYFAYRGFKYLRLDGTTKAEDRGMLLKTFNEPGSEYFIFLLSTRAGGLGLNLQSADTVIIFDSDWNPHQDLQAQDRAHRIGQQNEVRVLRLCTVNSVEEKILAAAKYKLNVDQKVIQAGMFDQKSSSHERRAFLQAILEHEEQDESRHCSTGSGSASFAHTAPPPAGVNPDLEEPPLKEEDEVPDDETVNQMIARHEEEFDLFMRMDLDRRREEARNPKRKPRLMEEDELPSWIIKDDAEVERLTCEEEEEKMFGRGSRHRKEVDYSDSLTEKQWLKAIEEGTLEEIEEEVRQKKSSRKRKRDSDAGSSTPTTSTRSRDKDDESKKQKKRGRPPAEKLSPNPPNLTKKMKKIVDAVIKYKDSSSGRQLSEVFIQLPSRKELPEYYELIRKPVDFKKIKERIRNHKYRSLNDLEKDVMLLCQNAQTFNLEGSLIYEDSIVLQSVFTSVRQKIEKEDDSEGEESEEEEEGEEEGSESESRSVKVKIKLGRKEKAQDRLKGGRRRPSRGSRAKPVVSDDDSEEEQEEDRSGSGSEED

Results are given in words; binding and its absence hold for the method and conditions named. Binding seen in cells or lysates may run through a third protein. A yes stands for co-enrichment or nearness to the bait. Other partners may have been found.

The assay addresses FGF receptor 3 (human (endogenous in SUM149 and SUM149-BR cells)) (UniProt P22607). Nature of the assay: affinity purification with mass spectrometry; mass spectrometry of FGFR3-interacting proteins in response to talazoparib treatment in SUM149 parental and BR#09 cells.

As to “Brahma-related gene 1 (from UniProt P51532 1-1647)”, the binding entry is listed as “binds”.
